Among the data in paper PMC8115616 are binding values, retold here.

These are yes or no findings as the source states them, for the method shown. Binding can be weak; no strength is given.

For the test, the target named is RsbS (bacterial two-hybrid fusion) (Mycobacterium marinum (strain CCUG20998)) (UniProt B2HK91). Briefly: two-hybrid; bacterial two-hybrid system (BACTH); blue colonies indicated that the two polypeptides did interact; the two proteins expressed from different plasmids with different copy numbers.

In the case of “RsbR (bacterial two-hybrid fusion) (from UniProt B2HK90)”, the binding entry is recorded as “binds”.
